Reference: PubChem BioAssay AID588590 (National Center for Advancing Translational Sciences (NCATS), 2011)
Out of some 390,000 compounds screened, about 4,000 (1%) were called active. Inconclusive means that the source gave no clear call. Such entries were picked first, then a sample of the others. Calls follow the shape of the dose curve; as a rule, active = well fitted inhibition curve with a large enough effect; inconclusive = small, poorly fitted or top-dose-only effect, or another doubt; inactive = no such curve, though single readings can be large or run the other way. Potencies of inconclusive entries are doubtful fits and often do not repeat.

By UniProt entry, the sequences of proteins in these tests, tags left out. Where a name states a change or a piece, a line headed by the entry shows the natural chain unless it says otherwise.
UniProt Q9UNA4: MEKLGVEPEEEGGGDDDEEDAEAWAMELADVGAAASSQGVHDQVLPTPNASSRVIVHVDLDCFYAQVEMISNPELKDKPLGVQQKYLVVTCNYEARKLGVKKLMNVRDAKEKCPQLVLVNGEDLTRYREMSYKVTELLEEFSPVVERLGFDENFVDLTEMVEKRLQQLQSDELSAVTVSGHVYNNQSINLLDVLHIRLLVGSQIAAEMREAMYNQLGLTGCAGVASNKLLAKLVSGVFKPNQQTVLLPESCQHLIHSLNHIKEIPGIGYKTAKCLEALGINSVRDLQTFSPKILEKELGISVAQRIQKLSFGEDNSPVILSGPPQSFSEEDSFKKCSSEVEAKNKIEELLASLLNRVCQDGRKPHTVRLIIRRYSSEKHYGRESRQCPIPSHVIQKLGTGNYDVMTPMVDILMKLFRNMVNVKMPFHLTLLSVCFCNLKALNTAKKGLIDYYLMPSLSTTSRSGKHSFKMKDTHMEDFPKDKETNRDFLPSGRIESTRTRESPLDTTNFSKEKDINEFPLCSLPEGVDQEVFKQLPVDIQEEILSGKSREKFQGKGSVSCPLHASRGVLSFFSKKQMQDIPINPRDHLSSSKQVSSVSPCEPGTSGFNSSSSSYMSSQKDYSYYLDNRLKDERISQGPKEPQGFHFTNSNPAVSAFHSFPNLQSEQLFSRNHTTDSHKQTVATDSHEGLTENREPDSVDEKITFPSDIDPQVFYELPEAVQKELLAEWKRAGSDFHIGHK

target: DNA polymerase iota (Homo sapiens) (UniProt Q9UNA4); assay: qHTS for Inhibitors of Polymerase Iota; details: Pol iota fluorescent replication assay, 10 min; series mostly up to 115 µM
Summary of the method: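 Pol iota at 10 nM preincubated 15 min with compounds at room temperature; reaction started with fluorescent substrate, 50 nM final. Fluorescence read kinetically at 0 and 10 min; buffer-only wells as negative control.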
Potency is read from the fitted curve at half-maximal effect.

SMILES	Potency
COc1cc([N+](=O)[O-])ccc1NC(=O)NNC(=O)c1sccc1C	inconclusive: 28.2 µM [inhibitor, partial curve, poor fit]
COc1ccc2[nH]cc(CCNC(=O)C3CC(=O)N(c4ccc(Cl)cc4)C3)c2c1 (stereo not drawn)	inconclusive: 79.4 µM [inhibitor, single point]
CC(C)CCNC(=O)c1cc(-c2ccc(Br)s2)nc2ccccc12	inactive
CCC(CO)Oc1cc(NCc2ccccc2C)c2ncn(C(C)C)c2c1 (stereo not drawn)	inconclusive: 22.4 µM [inhibitor, full curve, poor fit]
CCOc1ccc(N(CC(=O)Nc2c(C)n(C)n(-c3ccccc3)c2=O)S(=O)(=O)c2ccc(F)cc2)cc1	inconclusive: 100 µM [inhibitor, single point]
COc1cccc(NC(=O)Nc2ccc3snnc3c2)c1	inactive
CCOC(=O)CSc1nc2c(sc(=S)n2-c2ccccc2OC)c(=O)n1Cc1ccco1	inconclusive: 22.4 µM [inhibitor, single point]
CCc1ccc2oc(-c3cccc(NC(=O)COc4ccccc4Cl)c3)nc2c1	inconclusive: 17.8 µM [inhibitor, full curve, poor fit]
Cc1sc2nc(SCC(=O)Nc3c(C)n(C)n(-c4ccccc4)c3=O)n(C)c(=O)c2c1C	inconclusive: 89.1 µM [inhibitor, partial curve, poor fit]
COc1ccccc1/C=C/C=N/NC(=O)c1ccccn1	inactive
COCCCNC(=O)CCN1C(=O)COc2ccccc21	inconclusive: 79.4 µM [inhibitor, single point]
CCOC(=O)NC(=O)c1cn(-c2ccc(OC)cc2)c(=O)[nH]c1=O	inconclusive: 17.8 µM [inhibitor, partial curve, poor fit]
O=[n+]1c2c(n([O-])c3cc(F)c(N4CCCC4)cc31)CCCC2	inconclusive: 17.8 µM [inhibitor, full curve, poor fit]
S=c1[nH]nc(-c2cc(-c3ccccc3)n[nH]2)n1/N=C/c1ccc(Br)s1	active: 22.4 µM
CCN(CC)S(=O)(=O)c1ccc(Cc2ncc(C(F)(F)F)cc2Cl)s1	inconclusive: 3.55 µM [inhibitor, single point]
CCN(CC)C(=O)c1ccc2c(c1)N(Cc1ccccc1F)C(=O)c1ccccc1S2=O (stereo not drawn)	inactive
O=C1CC[C@H](O)CCN1[C@H](CSc1ccc(Br)cc1)Cc1ccccc1	inconclusive: 25.1 µM [inhibitor, partial curve, poor fit]
COc1ccc(C2CC(=O)c3cc(-c4nc(-c5ccc(C)cc5)cs4)c(=O)[nH]c3C2)cc1 (stereo not drawn)	inconclusive: 25.1 µM [inhibitor, full curve]
Cc1noc(C)c1COc1ccc(C(=O)NCCc2ccccn2)cc1	inactive
CCOc1ccc(/C=C/C(=O)Nc2sc3c(c2C(=O)OC)CCCC3)cc1	inactive
Cc1c(C(=O)O)cccc1-c1ccc(C=O)o1	inconclusive: 100 µM [inhibitor, partial curve, poor fit]

SMILES	Potency
O=C(c1cccc(F)c1)N1CCN(c2cccc(C(F)(F)F)c2)CC1	inconclusive: 28.2 µM [inhibitor, single point]
Cc1ccc(/C(O)=C/C(=O)C(=O)NC23CC4CC(CC(C4)C2)C3)cc1	inconclusive: 35.5 µM [inhibitor, single point]
CCn1cc(S(=O)(=O)c2ccc(OC)cc2)c(=O)c2cc(F)c(N3CCCCCC3)cc21	inconclusive: 89.1 µM [inhibitor, single point]
Cc1csc(NC(=O)c2nc3nccc(C)n3n2)n1	inconclusive: 35.5 µM [inhibitor, single point]
CCCNC(=S)Nc1ccc(Br)cc1	inactive
CCOC(=O)COc1cc(C)c(Cl)cc1C(=O)c1ccn2nc(-c3ccc(OC)cc3)cc2n1	inactive
CSc1ccccc1NC(=O)c1ccc(N2CC3CC(C2)c2cccc(=O)n2C3)c(NC(=O)c2cccnc2)c1 (stereo not drawn)	inconclusive: 7.08 µM [inhibitor, partial curve]
COc1ccc2[nH]c3c4c(ccc3c2c1)C(=O)C=CC4=O	active: 31.6 µM
COC(=O)c1nc2cc(C)ccn2c1F	inconclusive: 3.98 µM [inhibitor, full curve]
COc1ccc(CN(Cc2ccc(C(=O)O)cc2)C(=S)Nc2cccc(C)c2)cc1OC	inconclusive: 89.1 µM [inhibitor, single point]
CCOc1ccccc1NC(=O)CSc1ccc(-c2ccco2)nn1	active: 56.2 µM
CCn1cc(C(=O)NCCCN2CCC(C)CC2)c(=O)c2cc(S(=O)(=O)N3CCOCC3)ccc21	inconclusive: 89.1 µM [inhibitor, partial curve, poor fit]
Cc1ccccc1N1C(S)=C(C#N)C(=O)NC1c1ccco1 (stereo not drawn)	active: 22.4 µM
COc1cccc(NC(=O)CN(C)C(=O)CC2CCCC2)c1	inconclusive: 79.4 µM [inhibitor, partial curve, poor fit]
CN(C)c1ccc(NC(=O)c2cc3c(=O)n4ccccc4nc3n2C)cc1	inconclusive: 50.1 µM [inhibitor, partial curve, poor fit]
CN(C)c1ccc(/C=C/c2ccnc3ccc([N+](=O)[O-])cc23)cc1	inconclusive: 89.1 µM [inhibitor, single point]
CC1CC(C)(C)N(C(=O)CN2C(=O)c3ccccc3C2=O)c2ccccc21 (stereo not drawn)	inconclusive: 39.8 µM [inhibitor, full curve, poor fit]
O=C(c1ccccc1)N1CCCCC(S(=O)(=O)c2ccccc2)C1=O (stereo not drawn)	inactive
Cc1[nH]c2ccc(C(=O)Nc3ccncc3)cc2c1C	inconclusive: 8.91 µM [inhibitor, partial curve, poor fit]
CC1=NN(c2ccccc2)C(=O)C1/C=C1\NC(=S)NC1=O (stereo not drawn)	inconclusive: 1.26 µM [inhibitor, full curve, poor fit]
COc1ccc(/C=C/C(=O)NCC(=O)n2nc(C)cc2C)cc1	inconclusive: 2.51 µM [inhibitor, full curve]

SMILES	Potency
Cn1c(SCC(=O)Nc2nc3ccccc3s2)ncc(C(=O)Nc2ccc(Cl)cc2)c1=O	inactive
N#C/C(=C\c1ccccc1)C(=O)Nc1cc(S(=O)(=O)N2CCOCC2)ccc1N1CCCC1	inconclusive: 28.2 µM [inhibitor, partial curve, poor fit]
CCCCCCCCCC[n+]1ccc(/C=C/c2c[nH]c3ccccc23)c2ccccc21	inconclusive: 79.4 µM [inhibitor, partial curve, poor fit]
Cc1cccn2c(=O)c3cc(C#N)c(=O)n(-c4nnc(SCc5ccc(F)cc5)s4)c3nc12	inactive
COc1ccc(NC(=S)NC2CCS(=O)(=O)C2)cc1 (stereo not drawn)	inconclusive: 89.1 µM [inhibitor, single point]
COc1ccccc1CNS(=O)(=O)c1c(C)[nH]c(C)c1C(=O)N1CCCC1	inconclusive: 89.1 µM [inhibitor, partial curve, poor fit]
CSc1ccc(/C=C/c2nc3ccccc3n2S(=O)(=O)c2ccc(Br)cc2)cc1	inconclusive: 89.1 µM [inhibitor, single point]
CNC(C)C#Cc1ccc2c(=O)c3cc(C)c(C)cc3oc2c1 (stereo not drawn)	inconclusive: 14.1 µM [inhibitor, partial curve, poor fit]
CC(C)CC(=O)Nc1ccc([N+](=O)[O-])cc1Cl	inconclusive: 89.1 µM [inhibitor, single point]
CC(=O)c1cccc(NC(=O)c2cc(C)no2)c1	inconclusive: 25.1 µM [inhibitor, partial curve, poor fit]
COc1ccc(-n2nnc(-c3nsc(NC(=O)c4cccc(C)c4)n3)c2C)cc1OC	inconclusive: 70.8 µM [inhibitor, partial curve]
CN(CCCc1cnc[nH]1)C(=S)NCCCN(Cc1ccc(Cl)cc1)c1ccc(Br)cn1	inconclusive: 44.7 µM [inhibitor, partial curve, poor fit]
Cc1ccccc1N1C(=O)C(Cl)=C(N2CCOCC2)C1=O	inconclusive: 70.8 µM [inhibitor, single point]
O=C(CSc1nc2[nH]c(=O)cc(O)c2s1)Nc1ccc(Cl)c(C(F)(F)F)c1	inactive
CC(OC(=O)c1ccc(S(=O)(=O)NCc2ccco2)cc1)C(=O)Nc1ccc(Cl)cn1 (stereo not drawn)	inconclusive: 112 µM [inhibitor, partial curve, poor fit]
c1ccc(-c2ccc(CN3C[C@@H]4C(c5ccccc5)C5(c6ccccc6)CC4(C5)[C@H]3c3ccccc3)cc2)cc1 (stereo partly drawn)	inconclusive: 50.1 µM [inhibitor, partial curve, poor fit]
Cc1c(C(=O)Nc2ccc(F)cc2)oc2ccc(S(=O)(=O)N3CCCCCC3)cc12	inconclusive: 0.631 µM [inhibitor, full curve, poor fit]
CN(C)c1cc(-c2ccc(Cl)c(Cl)c2)oc(=O)c1Cl	inconclusive: 8.91 µM [inhibitor, partial curve]
CCOc1ccccc1C(=O)NCC(=O)N(C)Cc1ccccc1C	inconclusive: 79.4 µM [inhibitor, partial curve, poor fit]
C=CCn1c(SCC(=O)Nc2ccc(O)cc2)nc2sc(C)c(C)c2c1=O	inconclusive: 89.1 µM [inhibitor, single point]
CCOC(=O)c1c(NC(=O)C2CCCCC2C(=O)O)sc2c1CCCCC2 (stereo not drawn)	inactive

Part of the list above in another layout:

| SMILES | Potency |
| --- | --- |
| CCOC(=O)NC(=O)c1cn(-c2ccc(OC)cc2)c(=O)[nH]c1=O | inconclusive: 17.8 µM [inhibitor, partial curve, poor fit] |
| O=[n+]1c2c(n([O-])c3cc(F)c(N4CCCC4)cc31)CCCC2 | inconclusive: 17.8 µM [inhibitor, full curve, poor fit] |
| S=c1[nH]nc(-c2cc(-c3ccccc3)n[nH]2)n1/N=C/c1ccc(Br)s1 | active: 22.4 µM |
| CCN(CC)S(=O)(=O)c1ccc(Cc2ncc(C(F)(F)F)cc2Cl)s1 | inconclusive: 3.55 µM [inhibitor, single point] |
| CCN(CC)C(=O)c1ccc2c(c1)N(Cc1ccccc1F)C(=O)c1ccccc1S2=O (stereo not drawn) | inactive |
| O=C1CC[C@H](O)CCN1[C@H](CSc1ccc(Br)cc1)Cc1ccccc1 | inconclusive: 25.1 µM [inhibitor, partial curve, poor fit] |
| COc1ccc(C2CC(=O)c3cc(-c4nc(-c5ccc(C)cc5)cs4)c(=O)[nH]c3C2)cc1 (stereo not drawn) | inconclusive: 25.1 µM [inhibitor, full curve] |
| Cc1noc(C)c1COc1ccc(C(=O)NCCc2ccccn2)cc1 | inactive |
| CCOc1ccc(/C=C/C(=O)Nc2sc3c(c2C(=O)OC)CCCC3)cc1 | inactive |
| Cc1c(C(=O)O)cccc1-c1ccc(C=O)o1 | inconclusive: 100 µM [inhibitor, partial curve, poor fit] |
| O=C(c1cccc(F)c1)N1CCN(c2cccc(C(F)(F)F)c2)CC1 | inconclusive: 28.2 µM [inhibitor, single point] |
| Cc1ccc(/C(O)=C/C(=O)C(=O)NC23CC4CC(CC(C4)C2)C3)cc1 | inconclusive: 35.5 µM [inhibitor, single point] |
| CCn1cc(S(=O)(=O)c2ccc(OC)cc2)c(=O)c2cc(F)c(N3CCCCCC3)cc21 | inconclusive: 89.1 µM [inhibitor, single point] |
